# Data from PubChem BioAssay AID485353 (National Center for Advancing Translational Sciences (NCATS), 2010).
# About 610 (0.18%) of roughly 330,000 compounds were called active. Inconclusive results, whose numbers are uncertain, are shown with a selection of clear calls. Calls come from the whole dose curve. A potency beside an inconclusive call is a rough fit, not a confirmed value.
# Assay: qHTS of Yeast-based Assay for SARS-CoV PLP; note: nearly all actives have a fitted effect of over 55% in size; for activity, positive = growth rescue: 0% is about no effect
# Conditions: S. cerevisiae expressing SARS-CoV PLpro; Potency: growth rescue; activity, positive = growth rescue: at 32.9 µM (top of the series)
# Potency is the fitted concentration of half-maximal effect.
Structure (SMILES),Potency,"activity, positive = growth rescue"
CCN(CC)c1ccc(-c2nc3cnccc3n2C)cc1,"inconclusive: 3.98 µM [activator, single point]",
O=C(C#Cc1ccccc1)c1cccc([N+](=O)[O-])c1,,inactive: -51.4%
CCn1c(/C=C2/C(=O)N(C)c3ccccc32)nc2ccccc2c1=O,,inactive: 0.114%
CCCNC(=S)NCc1ccc(Cl)cc1,"inconclusive: 20 µM [activator, single point]",
COP(=O)(OC)c1nc(-c2ccccc2)oc1NCc1ccccc1,"inconclusive: 22.4 µM [activator, single point]",
Cc1ccc(S(=O)(=O)N2CCCCC2)cc1NC(=O)CSCC(=O)O,,inactive: -0.542%
Cc1ccc(C)c(C(=O)CN2C3=NCCCN3c3ccccc32)c1,"inconclusive: 0.398 µM [activator, full curve, poor fit]",
COC(=O)c1ccc(COc2ccc(-c3nnn(CC(=O)NC(C)(C)C)n3)cc2)cc1,"inconclusive: 20 µM [activator, single point]",
Cc1cc(NC(=O)CSc2nc3ccsc3c(=O)n2NC(=O)c2ccccc2)no1,"inconclusive: 2.82 µM [activator, single point]",
CCc1cc2c(=O)nc3n(c2s1)Cc1ccccc1/C3=C(/O)c1ccccc1Cl,"inconclusive: 15.8 µM [activator, single point]",
CCN(C[C@H]1N[C@@](Cc2ccccc2)(C(=O)OC)[C@H]2C(=O)N(C)C(=O)[C@@H]12)C(=O)Nc1ccc(Cl)cc1,"inconclusive: 20 µM [activator, single point]",
CC(Oc1ccc(Cl)cc1Cl)C(=O)N(C)c1ccccc1 (stereo not given),,inactive: -1.03%
CCOc1cc(N2CCCC2)ccc1[N+](=O)[O-],"inconclusive: 20 µM [activator, single point]",
O=C(CSc1nc2nn(-c3ccccc3)c(=O)c-2c2n1CCCCC2)Nc1ccc(OC(F)F)cc1,,inactive: -3.32%
c1ccc(-c2cnc(CSc3nnc4ccccn34)o2)cc1,,inactive: -0.107%
Cc1ccc(CC2S/C(=C(/C#N)C(=O)NCc3ccco3)N(c3ccccc3)C2=O)cc1 (stereo not given),"inconclusive: 12.6 µM [activator, single point]",
CC(C)c1ccc(NC(=O)NCc2cccnc2)cc1,"inconclusive: 20 µM [activator, partial curve, poor fit]",
CNC(=S)N/N=C/C1=CCC2CC1C2(C)C (stereo not given),active: 12.6 µM,
C=CCn1c(=O)c(C(=O)NCc2ccccc2)c(O)c2ccccc21,"inconclusive: 12.6 µM [activator, partial curve]",
O=C(CN1C(=O)/C(=C/c2ccc(C(F)(F)F)cc2)Sc2ccccc21)NCCCN1CCOCC1,,inactive: -1.11%
CCOC(=O)N1CCC(NC(=O)Cn2cc3c(n2)CCCC3)CC1,,inactive: 2.79%
CC1(C)Cc2c(sc3c2c(=N)n(Cc2ccco2)c(=O)n3CC(=O)Nc2cccc(Cl)c2)CO1,,inactive: 13.8%
CCCN1CCN(C(=O)C2CCN(S(=O)(=O)c3c(C)noc3/C=C/c3ccc(C)cc3)CC2)CC1,"inconclusive: 17.8 µM [activator, single point]",
O=C(COC(=O)CSc1ccc([N+](=O)[O-])cc1)NCCC1=CCCCC1,,inactive: -4.61%

Structure (SMILES),Potency,"activity, positive = growth rescue"
Cc1ccc(-n2nc3c(=O)n(CC(=O)NCCc4cccs4)nc(C)c3c2C)cc1,"inconclusive: 20 µM [activator, single point]",
Cc1ccccc1N1CCN(C2CCCN(C(=O)c3snnc3C)C2)CC1 (stereo not given),"inconclusive: 22.4 µM [activator, single point]",
Cc1ccc(S(=O)(=O)Nc2ccccc2F)cc1C(=O)NNC(=O)c1ccccc1O,"inconclusive: 10 µM [activator, single point]",
COCCOC(=O)c1c(N)n(CCCN2CCOCC2)c2nc3ccccc3nc12,,inactive: 0.382%
O=C(NCC1CCCO1)c1ccccc1-c1nc(-c2ccccc2F)no1 (stereo not given),"inconclusive: 20 µM [activator, single point]",
Cc1c(N2C(=O)C(C)SC23C(=O)Nc2ccccc23)c(=O)n(-c2ccccc2)n1C (stereo not given),"inconclusive: 3.98 µM [activator, single point]",
O=C1CCc2cc(S(=O)(=O)Nc3cccc(F)c3)cc3c2N1CC3,"inconclusive: 3.16 µM [activator, single point]",
COc1ccccc1N1CCN(C2CCCN(Cc3ccccc3OCCO)C2)CC1 (stereo not given),"inconclusive: 12.6 µM [activator, partial curve]",
O=C(CSc1nnc(-c2csc3c2CCCC3)o1)Nc1ccccc1,,inactive: -6.6%
COc1ccccc1CNC1CCCc2ccccc21 (stereo not given),"inconclusive: 20 µM [activator, single point]",
CCOC(=O)c1[nH]c2ccccc2c1NC(=O)c1ccc(S(=O)(=O)N(C)C)cc1,"inconclusive: 20 µM [activator, single point]",
O=C(/C=C/c1cccs1)Nc1nc(-c2ccccc2)cs1,,inactive: -0.586%
CCNC(=S)NNC(=O)c1cccn(Cc2ccc(Cl)cc2Cl)c1=O,"inconclusive: 3.98 µM [activator, single point]",
NC(=S)N/N=C\c1ccc(-c2cccc(Cl)c2Cl)o1,"inconclusive: 20 µM [activator, single point]",
C=CCn1c(SCCOc2ccc(OC)cc2)nnc1C(C)NC(=O)Cc1ccc(OC)cc1 (stereo not given),,inactive: 18.9%
CCOc1ccccc1NC(=O)Cn1c(=O)c2ccccc2n(CC)c1=O,"inconclusive: 14.1 µM [activator, partial curve, poor fit]",
COC(=O)c1c(NC(=O)CSc2nc3ccccc3c(=O)n2Cc2ccco2)sc(C)c1C,"inconclusive: 4.47 µM [activator, single point]",
CN(C)S(=O)(=O)c1ccc(/C(O)=C2/C(=O)C(=O)N(Cc3cccnc3)C2c2ccncc2)cc1 (stereo not given),active: 10 µM,
CC(=O)Nc1nonc1-c1nc2ccccc2n1N(C(C)=O)C(C)=O,"inconclusive: 4.47 µM [activator, single point]",
CCOC(=O)c1sc2ncnc(Nc3cccc(C(=O)O)c3)c2c1C,,inactive: 28.6%
COCCCNC(=O)c1c(NC(=O)C2COc3ccccc3O2)sc2c1CCCC2 (stereo not given),"inconclusive: 4.47 µM [activator, single point]",
CC(CNC(=O)COC(=O)c1cccnc1Cl)c1ccccc1 (stereo not given),"inconclusive: 20 µM [activator, single point]",
Cc1ccc(S(=O)(=O)N2CCCC(C(=O)NCc3ccco3)C2)cc1Cl (stereo not given),,inactive: 4.4%
CCC1(c2ccc(F)cc2)NC(=O)N(CC(=O)Nc2ccc(S(N)(=O)=O)cc2)C1=O (stereo not given),,inactive: 1.38%

# Rewritten with tabs: 4 of the compounds above.
Structure (SMILES)	Potency	activity, positive = growth rescue
Cc1ccc(C)c(C(=O)CN2C3=NCCCN3c3ccccc32)c1	inconclusive: 0.398 µM [activator, full curve, poor fit]	
COC(=O)c1ccc(COc2ccc(-c3nnn(CC(=O)NC(C)(C)C)n3)cc2)cc1	inconclusive: 20 µM [activator, single point]	
Cc1cc(NC(=O)CSc2nc3ccsc3c(=O)n2NC(=O)c2ccccc2)no1	inconclusive: 2.82 µM [activator, single point]	
CCc1cc2c(=O)nc3n(c2s1)Cc1ccccc1/C3=C(/O)c1ccccc1Cl	inconclusive: 15.8 µM [activator, single point]	

# Following part

Structure (SMILES),Potency,"activity, positive = growth rescue"
COc1ccc(N2CCN(S(=O)(=O)c3cccs3)CC2)cc1,"inconclusive: 4.47 µM [activator, single point]",
CN(C)S(=O)(=O)c1ccc(C(=O)NCc2ccc3[nH]c4c(c3c2)CCCC4)cc1,active: 3.55 µM,
CCNC(=O)CN(c1ccc(C)cc1)S(=O)(=O)c1ccc(SC)cc1,"inconclusive: 7.94 µM [activator, partial curve]",
CC(C)Oc1ccc(Cc2c(O)nc(NCCCN(C)C)[nH]c2=O)cc1,"inconclusive: 20 µM [activator, single point]",
CCCCn1c(N)c(N(CC)C(=O)CCNC(=O)NC23CC4CC(CC(C4)C2)C3)c(=O)[nH]c1=O,,inactive: 3.8%
CCC(C(=O)NCCc1ccco1)n1nc(C)c2c(C)n(-c3ccccc3)nc2c1=O (stereo not given),"inconclusive: 11.2 µM [activator, single point]",
Cc1cccn2c(=O)c3c(nc12)N1CCCCC1C1(C3)C(=O)N(C)C(=O)N(C)C1=O (stereo not given),,inactive: -2.16%
COc1cc(C(c2c(C)[nH][nH]c2=O)c2c(C)[nH][nH]c2=O)cc([N+](=O)[O-])c1O,,inactive: 1.11%
Cc1ccccc1-n1nc(-c2ccc(N)cc2)cc1N,"inconclusive: 3.98 µM [activator, single point]",
Cc1ccc(C)c(NC(=O)C(OC(=O)c2cnc(C)cn2)c2ccccc2)c1 (stereo not given),,inactive: -1.43%
CC(C)OCCCNC(=O)COCC(=O)Nc1ccc(OCCc2ccccc2)cc1,,inactive: 0.285%
CC(C)[C@H](NC(=O)c1ccccc1)C(=O)OCC(=O)c1ccc2c(c1)NC(=O)CO2,"inconclusive: 12.6 µM [activator, partial curve]",
O=C(O)c1ccc(CN2C(=O)c3cccc4c([N+](=O)[O-])ccc(c34)C2=O)cc1,,inactive: -0.0406%
CCOC(=O)c1cc(-c2ccccc2)sc1NC(=O)c1ccc(OC)cc1,,inactive: -0.903%
COC(=O)c1cc(OC)c(OC)cc1NC(=S)N1CCN(C)CC1,"inconclusive: 0.355 µM [activator, full curve, poor fit]",
C/C(=N\NC(=O)c1cc(C)nc2ccccc12)c1cccc(Cl)c1,"inconclusive: 20 µM [activator, single point]",
CCCCOC(=O)Oc1ccc2c(=O)c(Oc3cc(C)cc(C)c3)coc2c1,"inconclusive: 20 µM [activator, single point]",
C=CCOc1ccc(CNCCO)cc1OCC,"inconclusive: 0.316 µM [activator, full curve, poor fit]",
CC(=O)O[C@@H]1[C@@]2(C)O[C@H]2CC[C@]23O[C@H]2[C@H](OC3=O)C2=C(C)C(=O)O[C@@]21O,"inconclusive: 12.6 µM [activator, single point]",
CC(O)CC(=O)NOCc1ccccc1 (stereo not given),"inconclusive: 11.2 µM [activator, single point]",
COCCCNC(=O)c1ccc(N2CCOCC2)c(NS(=O)(=O)c2ccc(OC)cc2)c1,"inconclusive: 3.98 µM [activator, single point]",
CC1CN(C(=O)CCC(=O)NCCc2ccccc2)c2ccccc2O1 (stereo not given),"inconclusive: 20 µM [activator, single point]",
